Patent US20250049937A1 (priority 2021, published 2025)

Assay: general procedure: solution-phase peptide synthesis; HATU/DIEA; EDCI/HOBt or EDCI/HOPO with 2,6-lutidine
Settings: late stage modification step, 210 nm

(S)—N-((3R,4S,5S)-1-((S)-2-((1R,2R)-3-(((S)-1-(4-aminophenyl)-3-cyanopropan-2-yl)amino)-1-methoxy-2-methyl-3-oxopropyl) pyrrolidin-1-yl)-3-methoxy-5-methyl-1-oxoheptan-4-yl)-2-((S)-2-(dimethylamino)-3-methylbutanamido)-N,3-dimethylbutanamide
final HPLC purity: 99.3%
